From patent US20100016241A1 come the findings set out here.

Sequences of proteins named here, by UniProt entry; tags and fusion partners are left off. A change or cut given only in a name is not applied to a line headed by its entry.
UniProt P14210: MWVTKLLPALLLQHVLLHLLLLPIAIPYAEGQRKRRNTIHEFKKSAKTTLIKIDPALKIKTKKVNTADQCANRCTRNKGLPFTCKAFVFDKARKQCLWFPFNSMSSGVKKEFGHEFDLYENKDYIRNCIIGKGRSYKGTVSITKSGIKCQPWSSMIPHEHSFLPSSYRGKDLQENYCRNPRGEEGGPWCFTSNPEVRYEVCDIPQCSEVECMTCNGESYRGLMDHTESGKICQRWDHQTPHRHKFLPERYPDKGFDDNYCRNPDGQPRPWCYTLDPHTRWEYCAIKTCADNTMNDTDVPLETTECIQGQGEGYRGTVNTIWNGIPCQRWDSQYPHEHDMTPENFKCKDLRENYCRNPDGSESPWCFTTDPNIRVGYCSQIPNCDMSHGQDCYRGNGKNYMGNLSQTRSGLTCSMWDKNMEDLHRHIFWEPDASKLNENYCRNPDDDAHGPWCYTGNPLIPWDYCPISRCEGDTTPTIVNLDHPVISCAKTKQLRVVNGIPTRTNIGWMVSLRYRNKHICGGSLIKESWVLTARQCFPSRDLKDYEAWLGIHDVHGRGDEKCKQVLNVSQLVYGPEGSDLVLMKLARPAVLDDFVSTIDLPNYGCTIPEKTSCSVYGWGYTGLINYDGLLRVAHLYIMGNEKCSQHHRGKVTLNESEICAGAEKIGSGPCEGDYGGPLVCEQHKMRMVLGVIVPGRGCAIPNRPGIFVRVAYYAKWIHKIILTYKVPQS

In test [1] the target is recombinant Sema (rSema) protein, Sema and PSI domains of the Met receptor with 8× His tag (UniProt P08581). The test can be described thus: coimmunoprecipitation with recombinant proteins.
Test [2] has as its target recombinant EC-Met protein (UniProt P08581). The test can be described thus: coimmunoprecipitation with recombinant proteins.

Results are given in words; binding and its absence hold for the method and conditions named. In cells and extracts the contact can be indirect. Some results given as binding are weak or reduced against the parent protein; the word gives no strength.

Consider “Recombinant HGF (hepatocyte growth factor) (from UniProt P14210 32-494; P14210 495-728) (ligand)”, for which the binding result in test [1] and in test [2] was “binds” in each case.
